Values after ≈ are worked out from the molar mass of the structure shown.
Assays:
[1] = Kinetic solubility of the compound in PBS at pH 7.4; conditions: buffer
physchem = conditions: buffer

SMILES	solubility kinetic [1] [µM]	solubility thermodynamic at 48 h (physchem) [µM]
CC[C@H](C)[C@@H]1NC(=O)[C@@H]2CCCN2C(=O)[C@H](Cc2ccccc2)NC(=O)[C@H](C(C)(C)C)NC(=O)c2csc(n2)[C@H]([C@@H](C)CC)NC(=O)[C@@H]2CCCN2C1=O	36 (≈ 27.5 µg/mL)	
CC[C@H](C)[C@@H]1NC(=O)[C@@H]2CCCN2C(=O)[C@H](Cc2ccccc2)N(C)C(=O)[C@H](C(C)(C)C)NC(=O)c2csc(n2)[C@H]([C@@H](C)CC)NC(=O)[C@@H]2CCCN2C1=O	36 (≈ 28 µg/mL)	8 (≈ 6.22 µg/mL)

From ChEMBL document CHEMBL3616364, “Going Out on a Limb: Delineating The Effects of β-Branching, N-Methylation, and Side Chain Size on the Passive Permeability, Solubility, and Flexibility of Sanguinamide A Analogues” (J Med Chem, 2015)
